# Laboratory results taken from PubChem BioAssay AID624297 (National Center for Advancing Translational Sciences (NCATS), 2012).
# About 6,200 (1.8%) of roughly 340,000 compounds were called active. Inconclusive results, whose numbers are uncertain, are shown with a selection of clear calls. The call rests on the fitted dose curve; in most records, active means well fitted activation curve with a large enough effect; inconclusive means small, poorly fitted or top-dose-only effect; inactive means no such curve, though single readings can be large or run the other way. Potencies of inconclusive entries are doubtful fits and often do not repeat.
# Experiment: A quantitative high throughput screen for small molecules that induce DNA re-replication in SW480 colon adenocarcinoma cells. Further: nearly all actives have a fitted effect of over 55% in size. On re-replication activation: % of control where 0% means no effect.
# Details: Hoechst DNA content imaging, 48 h; re-replication activation: at 46.1 µM (top of the series) unless noted
# Procedure, shortened: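 Hoechst fluorescence of nuclei (405 nm excitation, 500-530 nm emission) measured by plate-scanning imager after 48 hr compound exposure at 37 C; re-replication scored as increased number of nuclei with elevated intensity.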
# Potency means the concentration at half of the fitted maximal effect.
SMILES,Potency,re-replication activation
CC(C)c1cc(C(C)C)c(S(=O)(=O)N2CCNCC2)c(C(C)C)c1,"inconclusive: 20.6 µM [activator, single point]",
N#CC(C(=O)C1CCCCC1)c1nc2ccccc2[nH]1 (centres undefined),"inconclusive: 29.1 µM [activator, single point]",
NC(=O)c1nsc(C(=O)N(c2ccccc2)C(C(=O)NCc2ccc(F)cc2)c2ccc(O)cc2)c1N (centres undefined),"inconclusive: 20.6 µM [activator, single point]",
O=C(COc1ccc(Cl)cc1)N/N=C/c1cccc2cccnc12,"inconclusive: 20.6 µM [activator, single point]",
O=S(=O)(Nc1ccccc1)c1ccc(-c2csnn2)cc1,"inconclusive: 0.0046 µM [activator, full curve, poor fit]",
COc1ccc(NC(=O)/C(C#N)=C/c2ncc([N+](=O)[O-])n2C)c(OC)c1,"inconclusive: 2.91 µM [activator, single point]",
COCc1nnc(NC(=O)c2cc(C(=O)OC)cc([N+](=O)[O-])c2)s1,inactive,
COc1ccc(Nc2nc(N)nc(CN3CCc4ccccc4C3)n2)cc1,"inconclusive: 32.6 µM [activator, partial curve, poor fit]",
COc1ccc(NC(=O)c2ccc(NC(=O)c3ccco3)cc2)c(OC)c1,inactive,
Cc1cc(NC(=O)CSc2ccccc2)no1,inactive,
CCOC(=O)CC(=O)CSc1nc(CC)c(C)cc1C#N,active: 23.1 µM,
Cc1ccc(-n2c(SCC(N)=O)nc3c(c2=O)C2(CCCC2)Cc2ccccc2-3)cc1,inactive,
COc1ccc2c(c1)OC[C@H]1[C@H]2N2C(=O)c3cc(C)ccc3NC(=O)[C@@]2(C)[C@H]1c1ccccc1,active: 10.3 µM,
Cc1ccc(/C=N/NC(=O)CNC(=O)c2cccc([N+](=O)[O-])c2C)o1,inactive,
C#CCOc1nc(Nc2cccc([N+](=O)[O-])c2)nc(OCC#C)n1,"inconclusive: 25.9 µM [activator, single point]",
Cn1c(=O)c2c(nc(N3CCOCC3)n2C/C=C/c2ccccc2)n(C)c1=O,inactive,
COc1ccc(C(C)=O)cc1CSc1ccc(S(=O)(=O)N2CCCCC2)cn1,inactive,
CC(C)(C)NC(=O)N1CCN(c2nc(-c3ccccc3)ns2)CC1,"inconclusive: 32.6 µM [activator, partial curve, poor fit]",
CN(Cc1ccon1)C(=O)CC1C(=O)NCCN1CC1CCCCC1 (centres undefined),"inconclusive: 20.6 µM [activator, single point]",
CC(/C=N/Nc1nc(C)cc(=O)[nH]1)=C\c1ccccc1,"inconclusive: 0.103 µM [activator, full curve, poor fit]",
COc1cc(C(=O)N2CCCc3ccccc32)cc(OC)c1OC,"inconclusive: 29.1 µM [activator, single point]",
COc1cccc(-c2ccc(SCC(=O)c3ccccc3)nn2)c1,"inconclusive: 25.9 µM [activator, single point]",
CN1c2ccccc2C(C)(C)C12CC(c1cccc(S(=O)(=O)N3CCCC3)c1)=NO2 (centres undefined),inactive,

SMILES,Potency,re-replication activation
CCC1(c2ccccc2)NC(=O)N(CC(=O)N2CCN(S(=O)(=O)c3ccccc3)CC2)C1=O (centres undefined),"inconclusive: 23.1 µM [activator, partial curve, poor fit]",
COc1cccc(/C=N/NC(=O)C(=O)NCc2cccnc2)c1O,inactive,
C=CCOC(=O)C1=C[C@@H](C2CCCCC2)C[C@@H](OCc2ccc(CO)cc2)O1,"inconclusive: 0.116 µM [activator, full curve, poor fit]",
COc1ccc(CCNC(=O)CN(C)S(=O)(=O)c2ccc(Br)s2)cc1OC,,inconclusive: -692% [activator]
CC(C)N(CCCNC(=O)c1nn(C)c2c1CS(=O)(=O)c1ccccc1-2)Cc1ccccc1,"inconclusive: 29.1 µM [activator, single point]",
O=C(CSCc1ccc(F)cc1)Nc1nc2c(s1)CCCC2,"inconclusive: 18.4 µM [activator, partial curve, poor fit]",
COc1ccccc1-c1cc(C(=O)NC(C)c2ccccc2)no1 (centres undefined),"inconclusive: 32.6 µM [activator, partial curve, poor fit]",
Nc1nc(Nc2ccccc2)nc(N2CCOCC2)c1[N+](=O)[O-],"inconclusive: 0.116 µM [activator, full curve, poor fit]",
CC(C)CNC(=O)CSc1ccc(S(=O)(=O)N2CCN(C)CC2)cn1,inactive,
Cc1sc2c(c1C)c(=O)n(-c1ccccc1)c(=O)n2CC(=O)NCC1CCCO1 (centres undefined),"inconclusive: 20.6 µM [activator, single point]",
Nc1nnnn1-c1cccc([N+](=O)[O-])c1,inactive,
CSc1nccn1C(=O)c1ccccc1[N+](=O)[O-],"inconclusive: 11.6 µM [activator, single point]",
Cc1cc(C)n(Cc2ccc(C(=O)N/N=C/c3ccc(-c4ccc([N+](=O)[O-])cc4)o3)o2)n1,inactive,
COc1ccc(-c2cn[nH]c2-c2ccc(OC)cc2O)cc1,"inconclusive: 25.9 µM [activator, single point]",
O=C(NCc1cc(C(F)(F)F)cc(C(F)(F)F)c1)C12CN(Cc3ccccc3)CC1C(c1cccc([N+](=O)[O-])c1)=NO2 (centres undefined),inactive,
CC(C)n1cc(CN2CCCC(C(=O)Nc3ccccc3Oc3cccnc3)C2)cn1 (centres undefined),"inconclusive: 0.461 µM [activator, partial curve, poor fit]",
COc1ccc(CCNc2oc(-c3ccccc3OC)nc2C#N)cc1,inactive,
Cc1ccc(Cl)cc1N1CCN(C(=O)c2ccc(CS(=O)Cc3ccc(Cl)cc3)o2)CC1 (centres undefined),inactive,
CC(=O)c1ccccc1OCCCOc1cccc2cccnc12,inactive,
COCCOc1ccc(C(F)(F)F)cc1NC(=O)COC(=O)c1cc([N+](=O)[O-])ccc1N1CCOCC1,inactive,
O=C(COc1ccc(C(=O)c2ccccc2)cc1)NCc1ccc(F)cc1,active: 7.31 µM,
CCSC(=Nc1ccccc1)N1CCOCC1,inactive,
O=C(COC(=O)C1CC(O)CN1S(=O)(=O)c1ccccc1[N+](=O)[O-])c1ccc[nH]1 (centres undefined),"inconclusive: 20.6 µM [activator, single point]",

SMILES,Potency,re-replication activation
CCC(=O)Nc1cccc(C2=NOC3(C2)C[C@@H](C(N)=O)N(C(=O)c2ccc(OC)cc2)C3)c1 (some centres undefined),,inactive: -81.3% [at 9.22 µM]
Cc1nn(C)c(NC(=O)c2ccccc2Cl)c1Cl,inactive,
Cc1ccc2c(c1)C(=O)C(=O)N2Cc1ccc(C(F)(F)F)cc1,"inconclusive: 16.4 µM [activator, single point]",
Cc1ccc(NC(=O)Cc2nnc(SCC(=O)NC3CCCC3)n2C)cc1C,"inconclusive: 29.1 µM [activator, single point]",
Cc1ccc(NC(=S)N/N=C2\CCCCC2C)cc1 (centres undefined),"inconclusive: 29.1 µM [activator, single point]",
COc1ccccc1NS(=O)(=O)c1cc(NC(=O)/C=C/c2cccs2)ccc1N1CCOCC1,"inconclusive: 2.91 µM [activator, partial curve, poor fit]",
N#Cc1ccc(C23CC4(C2)[C@H](CN(CC2CCCCC2)[C@@H]4c2ccccc2)C3c2ccccc2)cc1 (some centres undefined),"inconclusive: 29.1 µM [activator, single point]",
CCCN(CCC)c1nc2ccccc2nc1C(C#N)C(=O)OCCOC (centres undefined),inactive,
CCOC(=O)[C@H]1[C@H]2COc3cc(OC)ccc3[C@@H]2N2C(=O)N(c3ccc(Cl)cc3)C(=O)[C@@]12C,inactive,
COc1ccc(S(=O)(=O)N2CCCC2C(=O)Nc2nnc(-c3cccnc3)s2)cc1 (centres undefined),inactive,
CN(C)/C(=N\S(=O)(=O)c1ccccc1)c1ccc(F)cc1,"inconclusive: 18.4 µM [activator, single point]",
Cc1cccc(OCCN2C(=O)C(=O)c3cc(C)ccc32)c1,"inconclusive: 0.92 µM [activator, full curve, poor fit]",
C/C(CC(=O)Nc1ccc([N+](=O)[O-])cc1)=N/NC(=O)C1CC12CCC2 (centres undefined),"inconclusive: 1.3 µM [activator, partial curve, poor fit]",
O=C(NCCCN1CCOCC1)c1cc(-c2cccc(Br)c2)nc2ccccc12,inactive,
Cc1cc(=O)oc2cc(OCC3CC(c4ccc(Br)cc4)=NO3)ccc12 (centres undefined),"inconclusive: 18.4 µM [activator, partial curve, poor fit]",
CCN1CSC(=S)N(Cc2ccccc2)C1,active: 18.4 µM,
COc1ccc(CN2C(=O)C(CC(C)C)Nc3ncnc(N4CCN(c5ccccn5)CC4)c32)cc1 (centres undefined),"inconclusive: 0.291 µM [activator, full curve, poor fit]",
CC(=O)N1C(=O)NC2=C(C(=O)CCC2)C1c1cccc([N+](=O)[O-])c1 (centres undefined),"inconclusive: 0.794 µM [activator, partial curve, poor fit]",
Cc1ccc2nc(NCCO)nc(-c3ccccc3)c2c1,"inconclusive: 16.4 µM [activator, single point]",
COc1cccc(CNc2ccc(S(N)(=O)=O)cc2)c1OCc1ccccc1F,inactive,
COC(=O)c1ccc(-n2c(C)cc(C(=O)CCl)c2C)cc1,"inconclusive: 20.6 µM [activator, single point]",
O=c1nc2n(CCO)c3ccccc3cc-2c(=O)[nH]1,"inconclusive: 5.8 µM [activator, full curve, poor fit]",
Cc1ccc(S(=O)(=O)NCC23C=CC(O2)C2C(=O)N(c4ccccc4)C(=O)C23)cc1 (centres undefined),"inconclusive: 29.1 µM [activator, partial curve, poor fit]",
